Assay results: US5093477A (priority 1988, dated 1992)
HELM strings list residues between dots; [ac] is acetyl, [am] amide, other brackets name non-standard units.

Columns and labels:
[1] = general procedure: Fmoc solid-phase peptide synthesis; Fmoc-Ile-benzyloxybenzyl alcohol-resin; Fmoc-amino acid OObt esters or HOBt esters activated in situ with diisopropylcar; conditions: whole synthesis, scale 5 g resin (0.43 mmol/g)
[2] = general procedure: Fmoc solid-phase peptide synthesis; amide anchoring resin; Fmoc-amino acid OObt esters or HOBt esters activated in situ with diisopropylcar; conditions: whole synthesis, scale 500 mg resin

PEPTIDE1{S.F.N.F.P.Q.I}$$$$V2.0
crude mass [1]: 1.13 g
isolated mass [1]: 323 mg

H-Val-Ser-Gln-Asn-Tyr-Opr-Ile-Val-Gln-OH
crude mass [2]: 260 mg
isolated mass [2]: 69 mg

PEPTIDE1{V.S.Q.N.Y.P.I.V.Q}$$$$V2.0
crude mass [2]: 236 mg
isolated mass [2]: 142 mg
